Experimental data reported in article PMC12206130.
No constants are given. Whether binding was seen depends on the method and setting. Some binding calls cover weakened binding; strength is not graded here. Sequences can lack the tags named with a protein.

Biological target: T1, GST-Myc3-Nrf2 (nuclear factor erythroid 2-related factor 2) (UniProt Q16236)
T1 sequence: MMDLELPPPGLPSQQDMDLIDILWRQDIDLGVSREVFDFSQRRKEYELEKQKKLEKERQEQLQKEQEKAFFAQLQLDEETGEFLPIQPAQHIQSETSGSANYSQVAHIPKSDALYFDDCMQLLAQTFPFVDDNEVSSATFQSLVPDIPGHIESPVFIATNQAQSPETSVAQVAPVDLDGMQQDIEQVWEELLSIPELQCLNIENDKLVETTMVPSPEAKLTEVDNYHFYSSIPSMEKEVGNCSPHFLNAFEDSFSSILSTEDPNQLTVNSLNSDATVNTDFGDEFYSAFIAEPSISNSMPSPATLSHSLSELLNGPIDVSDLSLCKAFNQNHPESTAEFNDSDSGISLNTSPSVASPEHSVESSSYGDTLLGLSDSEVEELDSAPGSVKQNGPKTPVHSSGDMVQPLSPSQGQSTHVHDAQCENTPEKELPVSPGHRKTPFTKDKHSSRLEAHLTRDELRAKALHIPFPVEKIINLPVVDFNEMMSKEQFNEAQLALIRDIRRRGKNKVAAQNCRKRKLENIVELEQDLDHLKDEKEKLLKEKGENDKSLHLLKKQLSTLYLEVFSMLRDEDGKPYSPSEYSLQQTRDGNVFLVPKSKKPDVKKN
Experiment: pull-down; GST pull-down; 10 μg of each recombinant protein mixed and rotated overnight in pull-down buffer (20 mM HEPES-NaOH pH 7.5, 150 mM NaCl, 0.5% Nonidet P-40, 2 mM EDTA, 10% glycerol, 1 mM DTT, protease inhibitors); captured on Glutathione Sepharose 4B, washed four times; western blot with anti-GST and anti-Flag; both purified

binding: binds
Substance: His-Flag-p53 (from UniProt P04637 1-393)
